Values of other authors, collected in US20050203105A1, “Composition and method for controlling alcohol-induced facial flushing in susceptible humans” (priority 2003, published 2005).
At least one structure is not confirmed: it was looked up by name or label, or the drawing left a doubt.

Test system: gastric acid secretion
Conditions: orally

CNC(=C[N+](=O)[O-])NCCSCc1ccc(CN(C)C)o1 [Ranitidine]
maintenance of serum concentration necessary to inhibit 50% of stimulated gastric acid secretion: 12 h
